Experimental data taken from the supplement of paper PMC4604168 (melanoma cell lines).
Some of the results follow. Single values are uncertain, as repeats are few or missing.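 The apoptosis fraction was the count of cleaved-PARP antibody-stained nuclei relative to all DNA-stained nuclei, imaged in 1,536-well plates. Screening doses were set so most cells survived, and baseline and induced cleaved-PARP levels vary greatly across cell lines.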

What was measured:
Test in all cases: cleaved PARP positive nuclei fraction relative to DMSO control; melanoma cells; higher = more apoptosis
Conditions in all cases: library dose: low library concentration; 72 h
501Mel = test system: 501Mel
A101D = test system: A101D
A2058 = test system: A2058
A375 = test system: A375
C32 = test system: C32
CBRC008 = test system: CBRC008 (line from a melanoma biopsy)
CBRC014 = test system: CBRC014 (line from a melanoma biopsy)
CBRC016 = test system: CBRC016 (line from a melanoma biopsy)
CBRC017 = test system: CBRC017 (line from a melanoma biopsy)
CBRC034 = test system: CBRC034 (line from a melanoma biopsy)
COLO792 = test system: COLO792
COLO800 = test system: COLO800
COLO829 = test system: COLO829
G361 = test system: G361
IPC-298 = test system: IPC-298
IST-MEL1 = test system: IST-MEL1
LB2518-MEL = test system: LB2518-MEL
LOXIMVI = test system: LOXIMVI
MEL-HO = test system: MEL-HO

Structure (SMILES) | cleaved PARP positive nuclei fraction (501Mel) [%] | cleaved PARP positive nuclei fraction (A101D) [%] | cleaved PARP positive nuclei fraction (A2058) [%] | cleaved PARP positive nuclei fraction (A375) [%] | cleaved PARP positive nuclei fraction (C32) [%] | cleaved PARP positive nuclei fraction (CBRC008) [%] | cleaved PARP positive nuclei fraction (CBRC014) [%] | cleaved PARP positive nuclei fraction (CBRC016) [%] | cleaved PARP positive nuclei fraction (CBRC017) [%] | cleaved PARP positive nuclei fraction (CBRC034) [%] | cleaved PARP positive nuclei fraction (COLO792) [%] | cleaved PARP positive nuclei fraction (COLO800) [%] | cleaved PARP positive nuclei fraction (COLO829) [%] | cleaved PARP positive nuclei fraction (G361) [%] | cleaved PARP positive nuclei fraction (IPC-298) [%] | cleaved PARP positive nuclei fraction (IST-MEL1) [%] | cleaved PARP positive nuclei fraction (LB2518-MEL) [%] | cleaved PARP positive nuclei fraction (LOXIMVI) [%] | cleaved PARP positive nuclei fraction (MEL-HO) [%]
NC(=O)c1ccc(N(C(N)=O)c2c(F)cccc2F)nc1-c1ccc(F)cc1F + C[C@]1(O)C[C@@H](c2nc(-c3ccc4ccc(-c5ccccc5)nc4c3)c3c(N)nccn32)C1 [OSI906] (first compound 0.4 µM, partner dose 0.4 µM) | 200 | 138 | 221 | 191 | 80.2 | 156 | 92.4 | 140 | 123 | 60.5 | 61.1 | 186 | 30.7 | 48.7 | 187 | 133 | 127 | 150 | 41.6
Cn1sc(=O)n(Cc2ccccc2)c1=O + CCCS(=O)(=O)Nc1ccc(F)c(C(=O)c2c[nH]c3ncc(Cl)cc23)c1F [PLX4720] (first compound 0.4 µM, partner dose 0.08 µM) | 146 | 309 | 47.2 | 82.3 | 113 | 75.2 | 104 | 112 | 151 | 32.5 | 94.6 | 61.2 | 84.8 | 123 | 58.2 | 87.1 | 43.7 | 43.3 | 117
CS(=O)(=O)c1ccc(C(=O)Nc2ccc(Cl)c(-c3ccccn3)c2)c(Cl)c1 [vismodegib] + CC(=O)c1c(C)c2cnc(Nc3ccc(N4CCNCC4)cn3)nc2n(C2CCCC2)c1=O [palbociclib] (first compound 1 µM, partner dose 0.04 µM) | 157 | 318 | 106 | 284 | 85.8 | 92.2 | 121 | 36.9 | 133 | 34.9 | 120 | 71.9 | 86 | 162 | 92.9 | 66.1 | 253 | 30.7 | 141
CS(=O)(=O)c1ccc(C(=O)Nc2ccc(Cl)c(-c3ccccn3)c2)c(Cl)c1 [vismodegib] + Clc1ccc(Nc2nnc(Cc3ccncc3)c3ccccc23)cc1 [vatalanib] (first compound 1 µM, partner dose 2 µM) | 111 | 101 | 138 | 201 | 82.4 | 78.1 | 118 | 131 | 113 | 88.9 | 105 | 214 | 58.9 | 128 | 28.7 | 134 | 103 | 146 | 174
CCN(CC)CCNC(=O)c1c(C)[nH]c(/C=C2\C(=O)Nc3ccc(F)cc32)c1C [sunitinib] + C=CCNC1=C2C[C@@H](C)C[C@H](OC)[C@H](O)[C@@H](C)/C=C(\C)[C@H](OC(N)=O)[C@@H](OC)/C=C\C=C(/C)C(=O)NC(=CC1=O)C2=O [Tanespimycin] (first compound 0.4 µM, partner dose 0.002 µM) | 862 | 105 | 264 | 84.6 | 243 | 72.7 | 85.6 | 47.8 | 102 | 61 | 80.5 | 147 | 73.5 | 103 | 88.8 | 119 | 94.4 | 119 | 508
NC(=O)c1ccc(N(C(N)=O)c2c(F)cccc2F)nc1-c1ccc(F)cc1F + CS(=O)(=O)CCNCc1ccc(-c2ccc3ncnc(Nc4ccc(OCc5cccc(F)c5)c(Cl)c4)c3c2)o1 [lapatinib] (first compound 0.4 µM, partner dose 0.8 µM) | 56.7 | 96.4 | 159 | 164 | 73.9 | 71.8 | 93.6 | 116 | 125 | 81.5 | 148 | 110 | 115 | 77.5 | 42.2 | 61.2 | 84.5 | 144 | 151
CCCCCCCCc1ccc(CCC(N)(CO)CO)cc1 [fingolimod] + NC1(c2ccc(-c3nc4ccn5c(=O)[nH]nc5c4cc3-c3ccccc3)cc2)CCC1 [MK2206] (first compound 2 µM, partner dose 0.4 µM) | 86.7 | 123 | 92.3 | 486 | 78 | 129 | 77.7 | 92.3 | 144 | 78.6 | 118 | 156 | 60.5 | 97.1 | 186 | 68.3 | 122 | 110 | 140
Cn1cnc2c(F)c(Nc3ccc(Br)cc3Cl)c(C(=O)NOCCO)cc21 [selumetinib] + Cn1sc(=O)n(Cc2ccccc2)c1=O [TDZD-8] (first compound 0.015 µM, partner dose 0.4 µM) | 1370 | 106 | 223 | 62 | 219 | 177 | 88.8 | 103 | 128 | 110 | 112 | 294 | 39.6 | 110 | 178 | 83.2 | 173 | 191 | 92.5
CCCCCCCCc1ccc(CCC(N)(CO)CO)cc1 [fingolimod] + C=CCNC1=C2C[C@@H](C)C[C@H](OC)[C@H](O)[C@@H](C)/C=C(\C)[C@H](OC(N)=O)[C@@H](OC)/C=C\C=C(/C)C(=O)NC(=CC1=O)C2=O [Tanespimycin] (first compound 2 µM, partner dose 0.002 µM) | 191 | 118 | 187 | 340 | 88.4 | 170 | 109 | 133 | 309 | 231 | 104 | 61.7 | 127 | 190 | 139 | 71.6 | 76.6 | 184 | 166
CN(c1ncccc1CNc1nc(Nc2ccc3c(c2)CC(=O)N3)ncc1C(F)(F)F)S(C)(=O)=O + Cn1c(Nc2ccc(C(F)(F)F)cc2)nc2cc(Oc3ccnc(-c4ncc(C(F)(F)F)[nH]4)c3)ccc21 [CHIR265] (first compound 0.08 µM, partner dose 0.08 µM) | 93.3 | 110 | 264 | 1160 | 92 | 190 | 117 | 83.2 | 209 | 109 | 188 | 88.5 | 132 | 192 | 64.9 | 78.8 | 349 | 163 | 28.3
CCN(CC)CCNC(=O)c1c(C)[nH]c(/C=C2\C(=O)Nc3ccc(F)cc32)c1C [sunitinib] + C#Cc1cccc(Nc2ncnc3cc(OCCOC)c(OCCOC)cc23)c1 [erlotinib] (first compound 0.4 µM, partner dose 0.8 µM) | 153 | 371 | 244 | 223 | 77.7 | 236 | 105 | 195 | 168 | 96.4 | 166 | 63.7 | 84.2 | 84.3 | 555 | 58.4 | 91.4 | 33 | 102
CN(c1ncccc1CNc1nc(Nc2ccc3c(c2)CC(=O)N3)ncc1C(F)(F)F)S(C)(=O)=O + Nc1cccc2c1CN(C1CCC(=O)NC1=O)C2=O [lenalidomide] (first compound 0.08 µM, partner dose 1 µM) | 180 | 50.2 | 177 | 110 | 323 | 55.8 | 115 | 130 | 152 | 169 | 92.9 | 122 | 102 | 156 | 162 | 128 | 113 | 70.1 | 61.9
CN(c1ncccc1CNc1nc(Nc2ccc3c(c2)CC(=O)N3)ncc1C(F)(F)F)S(C)(=O)=O + O=C(O)c1ccc2c(c1)nc(Nc1cccc(Cl)c1)c1ccncc12 [CX4945] (first compound 0.08 µM, partner dose 0.4 µM) | 143 | 377 | 160 | 149 | 149 | 30 | 104 | 92.6 | 113 | 311 | 126 | 78.2 | 91.9 | 100 | 179 | 103 | 87.8 | 56.8 | 253
CC(=O)O[C@@]12CO[C@@H]1C[C@H](O)[C@@]1(C)C(=O)[C@H](O)C3=C(C)[C@@H](OC(=O)[C@H](O)[C@@H](NC(=O)OC(C)(C)C)c4ccccc4)C[C@@](O)([C@@H](OC(=O)c4ccccc4)[C@H]21)C3(C)C [Docetaxel] + CO[C@H]1C[C@@H]2CC[C@@H](C)[C@@](O)(O2)C(=O)C(=O)N2CCCC[C@H]2C(=O)O[C@H]([C@H](C)C[C@@H]2CC[C@@H](OCCO)[C@H](OC)C2)CC(=O)[C@H](C)/C=C(\C)[C@@H](O)[C@@H](OC)C(=O)[C@H](C)C[C@H](C)/C=C/C=C/C=C/1C [everolimus] (first compound 0.0001 µM, partner dose 0.02 µM) | 3590 | 142 | 2670 | 4640 | 439 | 504 | 168 | 389 | 168 | 107 | 584 | 91.9 | 419 | 774 | 283 | 103 | 80.4 | 149 | 355
NC1(c2ccc(-c3nc4ccn5c(=O)[nH]nc5c4cc3-c3ccccc3)cc2)CCC1 + C#Cc1cccc(Nc2ncnc3cc(OCCOC)c(OCCOC)cc23)c1 [erlotinib] (first compound 0.4 µM, partner dose 0.8 µM) | 197 | 277 | 97.3 | 167 | 78.4 | 388 | 93.4 | 106 | 101 | 277 | 221 | 71.2 | 130 | 109 | 170 | 134 | 121 | 105 | 147
CS(=O)(=O)c1ccc(C(=O)Nc2ccc(Cl)c(-c3ccccn3)c2)c(Cl)c1 [vismodegib] + Cc1nc(Nc2ncc(C(=O)Nc3c(C)cccc3Cl)s2)cc(N2CCN(CCO)CC2)n1 [dasatanib] (first compound 1 µM, partner dose 0.004 µM) | 89.7 | 33.7 | 84.7 | 223 | 86.4 | 54.7 | 128 | 97.8 | 78.8 | 63.4 | 122 | 127 | 119 | 124 | 83.9 | 128 | 89.3 | 172 | 42.4

Reprinted at random: two entries already listed
Structure (SMILES) | cleaved PARP positive nuclei fraction (501Mel) [%] | cleaved PARP positive nuclei fraction (A101D) [%] | cleaved PARP positive nuclei fraction (A2058) [%] | cleaved PARP positive nuclei fraction (A375) [%] | cleaved PARP positive nuclei fraction (C32) [%] | cleaved PARP positive nuclei fraction (CBRC008) [%] | cleaved PARP positive nuclei fraction (CBRC014) [%] | cleaved PARP positive nuclei fraction (CBRC016) [%] | cleaved PARP positive nuclei fraction (CBRC017) [%] | cleaved PARP positive nuclei fraction (CBRC034) [%] | cleaved PARP positive nuclei fraction (COLO792) [%] | cleaved PARP positive nuclei fraction (COLO800) [%] | cleaved PARP positive nuclei fraction (COLO829) [%] | cleaved PARP positive nuclei fraction (G361) [%] | cleaved PARP positive nuclei fraction (IPC-298) [%] | cleaved PARP positive nuclei fraction (IST-MEL1) [%] | cleaved PARP positive nuclei fraction (LB2518-MEL) [%] | cleaved PARP positive nuclei fraction (LOXIMVI) [%] | cleaved PARP positive nuclei fraction (MEL-HO) [%]
CN(c1ncccc1CNc1nc(Nc2ccc3c(c2)CC(=O)N3)ncc1C(F)(F)F)S(C)(=O)=O + Cn1c(Nc2ccc(C(F)(F)F)cc2)nc2cc(Oc3ccnc(-c4ncc(C(F)(F)F)[nH]4)c3)ccc21 [CHIR265] (first compound 0.08 µM, partner dose 0.08 µM) | 93.3 | 110 | 264 | 1160 | 92 | 190 | 117 | 83.2 | 209 | 109 | 188 | 88.5 | 132 | 192 | 64.9 | 78.8 | 349 | 163 | 28.3
Cn1cnc2c(F)c(Nc3ccc(Br)cc3Cl)c(C(=O)NOCCO)cc21 [selumetinib] + Cn1sc(=O)n(Cc2ccccc2)c1=O [TDZD-8] (first compound 0.015 µM, partner dose 0.4 µM) | 1370 | 106 | 223 | 62 | 219 | 177 | 88.8 | 103 | 128 | 110 | 112 | 294 | 39.6 | 110 | 178 | 83.2 | 173 | 191 | 92.5
